Assay: general procedure: solution-phase peptide synthesis; 4-(4,6-dimethoxy-1,3,5-triazin-2-yl)-4-methylmorpholinium chloride
Settings: for conjugation yield: conjugation step; for final HPLC purity: UPLC (ACQUITY UPLC BEH C18)

## (9H-Fluoren-9-yl)methyl ((2R,10S)-10-benzyl-2-cyclopropyl-1-(((1S,9S)-9-ethyl-5-fluoro-9-hydroxy-4-methyl-10,13-dioxo-2,3,9,10,13,15-hexahydro-1H,12H-benzo[de]pyrano[3′,4′:6,7]indolizino[1,2-b]quinolin-1-yl)amino)-1,6,9,12,15-pentaoxo-3-oxa-5,8,11,14-tetraazahexadecan-16-yl) carbamate
  conjugation yield: 35.6%

## (11S,19R)-11-Benzyl-19-cyclopropyl-1-(9H-fluoren-9-yl)-3,6,9,12,15-pentaoxo-2,18-dioxa-4,7,10,13,16-pentaazaicosan-20-oic acid
Late stage modification step
  step yield: 79.1%

## 2,4-Dimethoxybenzyl (11S,19S)-11-benzyl-19-cyclopropyl-1-(9H-fluoren-9-yl)-3,6,9,12,15-pentaoxo-2,18-dioxa-4,7,10,13,16-pentaazaicosan-20-oate
Coupling step
  step yield: 80.2%

## (9H-Fluoren-9-yl)methyl ((2S,10S)-10-benzyl-2-cyclopropyl-1-(((1S,9S)-9-ethyl-5-fluoro-9-hydroxy-4-methyl-10,13-dioxo-2,3,9,10,13,15-hexahydro-1H,12H-benzo[de]pyrano[3′,4′:6,7]indolizino[1,2-b]quinolin-1-yl)amino)-1,6,9,12,15-pentaoxo-3-oxa-5,8,11,14-tetraazahexadecan-16-yl)c arbamate
  conjugation yield: 79.8%

## (11S,19R)-11-benzyl-19-cyclopropyl-1-(9H-fluoren-9-yl)-3,6,9,12,15-pentaoxo-2,18-dioxa-4,7,10,13,16-pentaazaicosan-20-oate
Coupling step
  step yield: 77.1%

## (11S,19S)-11-Benzyl-19-cyclopropyl-1-(9H-fluoren-9-yl)-3,6,9,12,15-pentaoxo-2,18-dioxa-4,7,10,13,16-pentaazaicosan-20-oic acid
Late stage modification step
  step yield: 99.2%

## N-((2R,105)-10-Benzyl-2-cyclopropyl-1-(((1S,9S)-9-ethyl-5-ﬂuoro-9-hydroxy-4- methyl-10,13-dioxo-2,3,9,10,13,15-hexahydro-1H,12H-benzo[de]pyrano[3′,4′:6,7] indolizino[1,2-b]quinolin-1-yl)amino)-1,6,9,12,15-pentaoxo-3-oxa-5,8,11,14- tetraazahexadecan-16-y1)-6-(2,5-dioxo-2,5-dihydro-1H-pyrrol-1-y1)hexanamide 9-A
Coupling step
  final HPLC purity: 85%

## 1-(((S)-7-Benzyl-20-(2,5-dioxo-2,5-dihydro-1H-pyrrol-1-yl)-3,6,9,12,15-pentaoxo-2,5,8,11,14-pentaazaicosyl)oxy)-N-((1S,9S)-9-ethyl-5-fluoro-9-hydroxy-4-methyl-10,13-dioxo-2,3,9,10,13,15-hexahydro-1H,12H-benzo[de]pyrano[3′,4′:6,7]indolizino[1,2-b]quinolin-1-yl)cyclopropane-1-carboxamide 8
Coupling step
  step yield: 39.0%

## 2,4-Dimethoxybenzyl (S)-1-((11-benzyl-1-(9H-fluoren-9-yl)-3,6,9,12,15-pentaoxo-2-oxa-4,7,10,13,16-pentaazaheptadecan-17-yl)oxy)cyclopropane-1-carboxylate
Coupling step
  step yield: 83.9%

## N-((2S,10S)-10-Benzyl-2-cyclopropyl-1-(((1S,9S)-9-ethyl-5-ﬂuoro-9-hydroxy-4- methyl-10,13-dioxo-2,3,9,10,13,15-hexahydro-1H,12H-benzo[de]pyrano[3′,4′:6,7] indolizino[1,2-b]quinolin-1-yl)amino)-1,6,9,12,15-pentaoxo-3-oxa-5,8,11,14- tetraazahexadecan-16-y1)-6-(2,5-dioxo-2,5-dihydro-1H-pyrrol-1-y1)hexanamide 9-B
Coupling step
  final HPLC purity: 89%

## (S)-1-((11-Benzyl-1-(9H-fluoren-9-yl)-3,6,9,12,15-pentaoxo-2-oxa-4,7,10,13,16-pentaazaheptadecan-17-yl)oxy)cyclopropane-1-carboxylic acid
Late stage modification step
  step yield: 84.1%

From patent publication US20260201062A1 (JIANGSU HENGRUI MEDICINE CO., LTD., priority 2018, published 2026)
